{"sequences": {"note": "The chains behind the UniProt entries cited, without tags or fusion partners.", "UniProt Q00610": "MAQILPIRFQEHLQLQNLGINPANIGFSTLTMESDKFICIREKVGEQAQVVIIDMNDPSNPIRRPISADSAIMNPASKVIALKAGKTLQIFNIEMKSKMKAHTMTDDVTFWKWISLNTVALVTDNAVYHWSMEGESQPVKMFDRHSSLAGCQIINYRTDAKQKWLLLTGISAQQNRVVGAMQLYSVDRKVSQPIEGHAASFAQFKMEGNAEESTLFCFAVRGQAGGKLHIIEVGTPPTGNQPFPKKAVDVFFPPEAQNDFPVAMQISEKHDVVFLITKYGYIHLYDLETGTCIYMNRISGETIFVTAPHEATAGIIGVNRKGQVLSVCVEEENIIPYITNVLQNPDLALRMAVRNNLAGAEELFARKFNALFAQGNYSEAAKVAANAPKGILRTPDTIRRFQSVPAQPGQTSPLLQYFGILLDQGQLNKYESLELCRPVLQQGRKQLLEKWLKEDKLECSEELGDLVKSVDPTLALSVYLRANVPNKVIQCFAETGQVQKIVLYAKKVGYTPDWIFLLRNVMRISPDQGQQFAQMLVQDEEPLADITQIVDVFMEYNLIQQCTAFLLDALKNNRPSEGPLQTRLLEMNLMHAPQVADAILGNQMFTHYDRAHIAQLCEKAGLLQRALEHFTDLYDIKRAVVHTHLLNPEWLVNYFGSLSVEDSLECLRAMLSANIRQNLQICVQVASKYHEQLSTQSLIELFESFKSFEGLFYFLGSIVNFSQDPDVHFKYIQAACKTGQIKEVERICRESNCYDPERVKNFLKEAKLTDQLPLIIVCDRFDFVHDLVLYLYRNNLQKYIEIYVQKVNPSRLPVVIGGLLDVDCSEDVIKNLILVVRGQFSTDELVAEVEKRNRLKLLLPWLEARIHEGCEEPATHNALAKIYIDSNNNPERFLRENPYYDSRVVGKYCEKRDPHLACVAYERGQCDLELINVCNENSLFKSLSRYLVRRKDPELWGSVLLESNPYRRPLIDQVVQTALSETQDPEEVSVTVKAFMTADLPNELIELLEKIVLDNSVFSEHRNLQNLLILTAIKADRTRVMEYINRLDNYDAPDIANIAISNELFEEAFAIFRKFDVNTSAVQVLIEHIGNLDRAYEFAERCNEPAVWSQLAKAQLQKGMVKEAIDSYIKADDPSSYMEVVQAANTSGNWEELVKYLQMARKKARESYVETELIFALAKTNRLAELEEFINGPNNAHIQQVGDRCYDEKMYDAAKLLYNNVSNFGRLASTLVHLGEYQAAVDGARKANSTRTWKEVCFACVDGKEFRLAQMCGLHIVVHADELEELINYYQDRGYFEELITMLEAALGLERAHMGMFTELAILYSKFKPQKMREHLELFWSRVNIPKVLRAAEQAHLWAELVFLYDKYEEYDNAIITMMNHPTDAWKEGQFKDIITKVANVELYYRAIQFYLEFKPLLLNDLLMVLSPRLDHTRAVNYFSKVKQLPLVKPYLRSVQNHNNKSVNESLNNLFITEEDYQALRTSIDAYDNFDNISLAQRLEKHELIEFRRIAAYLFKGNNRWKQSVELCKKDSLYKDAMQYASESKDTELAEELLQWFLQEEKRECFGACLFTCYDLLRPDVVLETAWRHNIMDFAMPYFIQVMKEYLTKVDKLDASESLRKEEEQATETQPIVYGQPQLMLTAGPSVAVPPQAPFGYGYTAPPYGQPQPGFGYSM", "UniProt P15924": "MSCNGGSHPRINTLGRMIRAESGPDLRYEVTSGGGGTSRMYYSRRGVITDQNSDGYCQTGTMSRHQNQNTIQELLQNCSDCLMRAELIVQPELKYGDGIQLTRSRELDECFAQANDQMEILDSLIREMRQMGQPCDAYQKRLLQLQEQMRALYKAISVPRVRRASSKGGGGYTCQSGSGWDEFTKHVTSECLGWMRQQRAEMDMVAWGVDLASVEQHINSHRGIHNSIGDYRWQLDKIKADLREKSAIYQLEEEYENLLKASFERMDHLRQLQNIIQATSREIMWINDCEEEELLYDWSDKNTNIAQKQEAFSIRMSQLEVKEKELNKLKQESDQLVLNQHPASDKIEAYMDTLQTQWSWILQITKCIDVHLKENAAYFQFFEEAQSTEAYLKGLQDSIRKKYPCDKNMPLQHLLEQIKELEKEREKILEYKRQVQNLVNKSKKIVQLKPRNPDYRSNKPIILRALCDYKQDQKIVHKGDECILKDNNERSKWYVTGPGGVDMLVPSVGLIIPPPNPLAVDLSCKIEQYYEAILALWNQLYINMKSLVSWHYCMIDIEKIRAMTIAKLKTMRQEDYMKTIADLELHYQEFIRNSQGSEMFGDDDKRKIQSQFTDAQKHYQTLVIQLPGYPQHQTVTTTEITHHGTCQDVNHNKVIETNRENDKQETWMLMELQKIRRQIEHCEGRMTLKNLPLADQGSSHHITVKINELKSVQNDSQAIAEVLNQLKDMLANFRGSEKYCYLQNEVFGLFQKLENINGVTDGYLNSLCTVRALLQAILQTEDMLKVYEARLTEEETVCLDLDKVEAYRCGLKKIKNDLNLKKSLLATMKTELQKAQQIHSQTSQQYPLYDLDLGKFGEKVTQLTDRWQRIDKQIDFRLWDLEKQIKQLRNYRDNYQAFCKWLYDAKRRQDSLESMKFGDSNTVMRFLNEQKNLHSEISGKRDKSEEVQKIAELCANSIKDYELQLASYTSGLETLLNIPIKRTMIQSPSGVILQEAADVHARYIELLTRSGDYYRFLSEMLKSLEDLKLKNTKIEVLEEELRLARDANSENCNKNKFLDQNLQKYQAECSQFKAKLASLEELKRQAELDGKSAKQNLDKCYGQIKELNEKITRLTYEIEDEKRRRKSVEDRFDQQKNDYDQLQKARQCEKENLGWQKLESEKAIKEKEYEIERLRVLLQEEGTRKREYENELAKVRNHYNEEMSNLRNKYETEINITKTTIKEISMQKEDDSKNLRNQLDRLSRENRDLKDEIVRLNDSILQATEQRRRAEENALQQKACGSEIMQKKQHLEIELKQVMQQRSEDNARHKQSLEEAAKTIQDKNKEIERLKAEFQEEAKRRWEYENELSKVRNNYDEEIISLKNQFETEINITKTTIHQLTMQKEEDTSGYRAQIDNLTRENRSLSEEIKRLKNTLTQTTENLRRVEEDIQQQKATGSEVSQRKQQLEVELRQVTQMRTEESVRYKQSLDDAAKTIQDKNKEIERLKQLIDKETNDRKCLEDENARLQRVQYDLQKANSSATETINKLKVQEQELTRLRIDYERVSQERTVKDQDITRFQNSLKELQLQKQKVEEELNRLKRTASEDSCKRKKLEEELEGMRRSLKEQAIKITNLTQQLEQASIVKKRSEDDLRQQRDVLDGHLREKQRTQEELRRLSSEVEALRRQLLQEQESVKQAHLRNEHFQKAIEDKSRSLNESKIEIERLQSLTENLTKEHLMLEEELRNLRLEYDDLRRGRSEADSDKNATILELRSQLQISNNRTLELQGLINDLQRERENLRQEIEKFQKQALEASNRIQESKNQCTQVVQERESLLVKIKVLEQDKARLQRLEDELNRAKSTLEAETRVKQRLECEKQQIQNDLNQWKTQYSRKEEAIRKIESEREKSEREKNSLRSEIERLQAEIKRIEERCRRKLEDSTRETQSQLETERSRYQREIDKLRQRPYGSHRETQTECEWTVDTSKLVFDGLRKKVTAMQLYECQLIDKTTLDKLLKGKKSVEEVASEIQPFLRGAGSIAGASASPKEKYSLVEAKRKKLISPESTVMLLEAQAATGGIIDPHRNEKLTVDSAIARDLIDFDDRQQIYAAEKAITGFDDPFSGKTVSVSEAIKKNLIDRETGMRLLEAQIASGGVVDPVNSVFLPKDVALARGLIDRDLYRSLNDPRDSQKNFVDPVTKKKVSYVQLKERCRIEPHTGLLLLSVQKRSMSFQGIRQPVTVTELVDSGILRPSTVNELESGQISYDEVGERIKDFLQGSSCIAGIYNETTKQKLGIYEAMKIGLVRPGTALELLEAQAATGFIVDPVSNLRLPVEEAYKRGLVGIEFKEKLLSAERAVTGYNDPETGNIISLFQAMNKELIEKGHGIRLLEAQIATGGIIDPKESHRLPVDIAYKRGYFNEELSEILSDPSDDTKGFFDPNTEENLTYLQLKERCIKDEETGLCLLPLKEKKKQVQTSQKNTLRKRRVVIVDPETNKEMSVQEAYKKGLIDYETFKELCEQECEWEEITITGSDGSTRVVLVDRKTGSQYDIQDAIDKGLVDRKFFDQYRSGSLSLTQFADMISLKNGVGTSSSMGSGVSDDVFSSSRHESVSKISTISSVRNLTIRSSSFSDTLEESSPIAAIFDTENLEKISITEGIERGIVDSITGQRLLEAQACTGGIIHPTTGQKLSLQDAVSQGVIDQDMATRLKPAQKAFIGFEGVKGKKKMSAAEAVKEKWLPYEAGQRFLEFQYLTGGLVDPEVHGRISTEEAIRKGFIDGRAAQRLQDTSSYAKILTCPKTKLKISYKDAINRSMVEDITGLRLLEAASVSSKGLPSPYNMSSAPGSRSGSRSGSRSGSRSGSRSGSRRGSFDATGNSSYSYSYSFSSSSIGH", "UniProt P20700": "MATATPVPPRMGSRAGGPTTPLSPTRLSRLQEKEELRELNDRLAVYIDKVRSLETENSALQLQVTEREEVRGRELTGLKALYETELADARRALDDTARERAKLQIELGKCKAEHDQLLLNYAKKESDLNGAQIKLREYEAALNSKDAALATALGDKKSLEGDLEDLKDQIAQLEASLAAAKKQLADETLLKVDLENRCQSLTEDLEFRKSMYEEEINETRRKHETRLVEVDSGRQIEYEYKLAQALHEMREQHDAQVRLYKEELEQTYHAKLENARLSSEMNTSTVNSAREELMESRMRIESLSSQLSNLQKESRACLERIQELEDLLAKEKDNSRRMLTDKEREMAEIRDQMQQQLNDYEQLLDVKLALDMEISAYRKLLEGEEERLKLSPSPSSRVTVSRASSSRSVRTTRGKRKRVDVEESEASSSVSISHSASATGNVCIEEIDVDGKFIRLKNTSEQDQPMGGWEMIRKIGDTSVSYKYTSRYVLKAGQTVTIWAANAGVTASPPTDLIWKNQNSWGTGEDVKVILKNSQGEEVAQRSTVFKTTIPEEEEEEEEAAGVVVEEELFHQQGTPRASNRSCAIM", "UniProt P09874": "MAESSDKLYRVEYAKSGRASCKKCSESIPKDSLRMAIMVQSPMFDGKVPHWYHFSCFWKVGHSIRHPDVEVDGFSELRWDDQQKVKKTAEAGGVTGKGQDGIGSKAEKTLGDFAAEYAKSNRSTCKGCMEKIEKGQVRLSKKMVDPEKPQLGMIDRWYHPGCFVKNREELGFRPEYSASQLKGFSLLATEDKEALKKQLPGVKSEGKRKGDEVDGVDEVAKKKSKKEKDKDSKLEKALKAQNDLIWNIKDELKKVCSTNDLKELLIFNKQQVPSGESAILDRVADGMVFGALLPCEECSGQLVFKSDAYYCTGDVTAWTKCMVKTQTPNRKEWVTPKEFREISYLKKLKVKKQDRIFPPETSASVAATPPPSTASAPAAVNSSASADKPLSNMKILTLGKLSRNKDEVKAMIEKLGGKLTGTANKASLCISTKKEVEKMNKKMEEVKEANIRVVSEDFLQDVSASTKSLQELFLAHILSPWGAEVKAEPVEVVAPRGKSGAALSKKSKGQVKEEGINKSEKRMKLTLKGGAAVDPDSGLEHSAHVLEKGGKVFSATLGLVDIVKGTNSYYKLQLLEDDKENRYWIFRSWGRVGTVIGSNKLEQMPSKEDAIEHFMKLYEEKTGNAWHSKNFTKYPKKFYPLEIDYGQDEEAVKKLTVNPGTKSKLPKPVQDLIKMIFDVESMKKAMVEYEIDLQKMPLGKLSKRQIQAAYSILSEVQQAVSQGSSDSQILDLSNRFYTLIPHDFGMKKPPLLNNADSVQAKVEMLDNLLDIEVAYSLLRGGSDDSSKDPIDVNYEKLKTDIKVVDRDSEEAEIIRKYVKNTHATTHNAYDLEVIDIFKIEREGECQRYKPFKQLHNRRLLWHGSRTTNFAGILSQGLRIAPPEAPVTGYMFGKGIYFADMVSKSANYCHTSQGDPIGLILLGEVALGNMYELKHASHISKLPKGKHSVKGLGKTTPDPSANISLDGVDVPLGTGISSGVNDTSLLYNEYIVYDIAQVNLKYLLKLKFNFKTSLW", "UniProt Q13426": "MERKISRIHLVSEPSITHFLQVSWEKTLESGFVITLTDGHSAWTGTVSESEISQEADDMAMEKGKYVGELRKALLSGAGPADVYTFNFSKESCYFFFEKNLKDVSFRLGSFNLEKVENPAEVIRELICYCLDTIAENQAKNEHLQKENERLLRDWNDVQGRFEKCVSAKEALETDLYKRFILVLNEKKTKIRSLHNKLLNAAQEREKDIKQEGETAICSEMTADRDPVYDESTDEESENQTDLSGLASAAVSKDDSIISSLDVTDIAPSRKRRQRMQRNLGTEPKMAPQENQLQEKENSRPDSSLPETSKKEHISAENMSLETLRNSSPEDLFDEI"}, "source": "paper PMC7979882", "biological_target": "T1, human period circadian regulator 3 (hPER3) (human) (UniProt P56645)", "T1 sequence": "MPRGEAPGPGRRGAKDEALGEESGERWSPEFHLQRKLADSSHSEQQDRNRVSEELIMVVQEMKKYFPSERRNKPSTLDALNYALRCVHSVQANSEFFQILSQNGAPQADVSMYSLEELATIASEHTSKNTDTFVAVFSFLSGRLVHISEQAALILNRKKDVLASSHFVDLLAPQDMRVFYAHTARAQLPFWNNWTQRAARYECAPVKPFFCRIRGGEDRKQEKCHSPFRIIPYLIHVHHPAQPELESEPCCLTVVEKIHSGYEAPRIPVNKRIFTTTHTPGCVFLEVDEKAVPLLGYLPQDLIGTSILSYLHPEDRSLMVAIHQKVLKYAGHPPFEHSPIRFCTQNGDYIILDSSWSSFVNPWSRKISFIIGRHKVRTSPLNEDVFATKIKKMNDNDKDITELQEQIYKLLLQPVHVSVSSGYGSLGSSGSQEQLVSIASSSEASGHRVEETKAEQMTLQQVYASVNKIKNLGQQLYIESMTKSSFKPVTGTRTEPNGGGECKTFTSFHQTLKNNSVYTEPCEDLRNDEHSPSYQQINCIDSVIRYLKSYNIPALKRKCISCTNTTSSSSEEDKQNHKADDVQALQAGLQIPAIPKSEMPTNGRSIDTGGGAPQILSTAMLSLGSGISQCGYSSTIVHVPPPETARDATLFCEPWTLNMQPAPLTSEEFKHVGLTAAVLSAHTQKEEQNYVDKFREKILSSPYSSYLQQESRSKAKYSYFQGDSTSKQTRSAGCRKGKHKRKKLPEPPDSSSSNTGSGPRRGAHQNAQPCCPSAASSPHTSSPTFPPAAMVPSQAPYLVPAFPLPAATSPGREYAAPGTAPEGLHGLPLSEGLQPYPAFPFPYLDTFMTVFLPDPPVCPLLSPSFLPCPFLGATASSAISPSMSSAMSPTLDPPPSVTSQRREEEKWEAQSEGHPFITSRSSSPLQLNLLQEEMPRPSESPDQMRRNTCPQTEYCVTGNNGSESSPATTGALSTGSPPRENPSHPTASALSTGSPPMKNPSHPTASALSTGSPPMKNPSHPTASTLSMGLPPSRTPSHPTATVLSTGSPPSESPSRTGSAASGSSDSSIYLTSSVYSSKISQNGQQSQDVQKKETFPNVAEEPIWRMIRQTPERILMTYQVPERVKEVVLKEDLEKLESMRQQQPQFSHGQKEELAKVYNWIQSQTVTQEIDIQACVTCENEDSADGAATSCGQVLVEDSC", "experiment": "affinity purification with mass spectrometry; Co-IP performed as for the co-IP, trypsin digestion, Q Exactive mass spectrometer, Mascot; how hPER3 was precipitated is not told", "note": "These are yes or no findings as the source states them, for the method shown. In cells and extracts the contact can be indirect. These calls come from enrichment with a bait or labelling near it, and not all partners need be listed.", "data": [{"molecule": "ATP synthase, H + transporting mitochondrial F1 complex, β-subunit (from UniProt P06576 48-529)", "values": [{"measurement": "binding", "result": "binds"}]}, {"molecule": "Clathrin heavy chain (from UniProt Q00610 1-1675)", "values": [{"measurement": "binding", "result": "binds"}]}, {"molecule": "Cytoplasmic dynein 1 heavy chain 1 (from UniProt Q14204 1-4646)", "values": [{"measurement": "binding", "result": "binds"}]}, {"molecule": "Desmoplakin (from UniProt P15924 1-2871)", "values": [{"measurement": "binding", "result": "binds"}]}, {"molecule": "Eukaryotic initiation factor 4A-I (from UniProt P60842 1-406)", "values": [{"measurement": "binding", "result": "binds"}]}, {"molecule": "Heat shock protein HSP 90β (from UniProt P08238 1-724)", "values": [{"measurement": "binding", "result": "binds"}]}, {"molecule": "Lamin-B1 (from UniProt P20700 1-586)", "values": [{"measurement": "binding", "result": "binds"}]}, {"molecule": "Myosin-9 (from UniProt P35579 1-1960)", "values": [{"measurement": "binding", "result": "binds"}]}, {"molecule": "Myosin-10 (from UniProt P35580 1-1976)", "values": [{"measurement": "binding", "result": "binds"}]}, {"molecule": "Poly [ADP-ribose] polymerase 1 (from UniProt P09874 1-1014)", "values": [{"measurement": "binding", "result": "binds"}]}, {"molecule": "Pyruvate kinase (from UniProt P14618 1-531)", "values": [{"measurement": "binding", "result": "binds"}]}, {"molecule": "Tubulin β-class I (from UniProt P07437 1-444)", "values": [{"measurement": "binding", "result": "binds"}]}, {"molecule": "Vimentin (from UniProt P08670 1-466)", "values": [{"measurement": "binding", "result": "binds"}]}, {"molecule": "XRCC4 (from UniProt Q13426 1-336)", "values": [{"measurement": "binding", "result": "binds"}]}, {"molecule": "hHSP90AA1 (hit of the hPER3 Co-IP + MS) (from UniProt P07900 1-732)", "values": [{"measurement": "binding", "result": "binds"}]}, {"molecule": "protein kinase, DNA-activated, catalytic subunit (from UniProt P78527 1-4128)", "values": [{"measurement": "binding", "result": "binds"}]}, {"molecule": "Heterogeneous nuclear ribonucleoprotein M (protein, UniProt P52272 1-730) MAAGVEAAAEVAATEIKMEEESGAPGVPSGNGAPGPKGEGERPAQNEKRKEKNIKRGGNRFEPYANPTKRYRAFITNIPFDVKWQSLKDLVKEKVGEVTYVELLMDAEGKSRGCAVVEFKMEESMKKAAEVLNKHSLSGRPLKVKEDPDGEHARRAMQKVMATTGGMGMGPGGPGMITIPPSILNNPNIPNEIIHALQAGRLGSTVFVANLDYKVGWKKLKEVFSMAGVVVRADILEDKDGKSRGIGTVTFEQSIEAVQAISMFNGQLLFDRPMHVKMDERALPKGDFFPPERPQQLPHGLGGIGMGLGPGGQPIDANHLNKGIGMGNIGPAGMGMEGIGFGINKMGGMEGPFGGGMENMGRFGSGMNMGRINEILSNALKRGEIIAKQGGGGGGGSVPGIERMGPGIDRLGGAGMERMGAGLGHGMDRVGSEIERMGLVMDRMGSVERMGSGIERMGPLGLDHMASSIERMGQTMERIGSGVERMGAGMGFGLERMAAPIDRVGQTIERMGSGVERMGPAIERMGLSMERMVPAGMGAGLERMGPVMDRMATGLERMGANNLERMGLERMGANSLERMGLERMGANSLERMGPAMGPALGAGIERMGLAMGGGGGASFDRAIEMERGNFGGSFAGSFGGAGGHAPGVARKACQIFVRNLPFDFTWKMLKDKFNECGHVLYADIKMENGKSKGCGVVKFESPEVAERACRMMNGMKLSGREIDVRIDRNA", "values": [{"measurement": "binding", "result": "binds"}]}, {"molecule": "IL22 (protein, UniProt Q9GZX6 34-179) APISSHCRLDKSNFQQPYITNRTFMLAKEASLADNNTDVRLIGEKLFHGVSMSERCYLMKQVLNFTLEEVLFPQSDRFQPYMQEVVPFLARLSNRLSTCHIEGDDLHIQRNVQKLKDTVKKLGESGEIKAIGELDLLFMSLRNACI", "values": [{"measurement": "binding", "result": "binds"}]}, {"molecule": "MARCKS (protein, UniProt P29966 1-332) MGAQFSKTAAKGEAAAERPGEAAVASSPSKANGQENGHVKVNGDASPAAAESGAKEELQANGSAPAADKEEPAAAGSGAASPSAAEKGEPAAAAAPEAGASPVEKEAPAEGEAAEPGSPTAAEGEAASAASSTSSPKAEDGATPSPSNETPKKKKKRFSFKKSFKLSGFSFKKNKKEAGEGGEAEAPAAEGGKDEAAGGAAAAAAEAGAASGEQAAAPGEEAAAGEEGAAGGDPQEAKPQEAAVAPEKPPASDETKAAEEPSKVEEKKAEEAGASAAACEAPSAAGPGAPPEQEAAPAEEPAAAAASSACAAPSQEAQPECSPEAPPAEAAE", "values": [{"measurement": "binding", "result": "binds"}]}]}
